Source: PubChem BioAssay AID602313 (National Center for Advancing Translational Sciences (NCATS), 2012)
Screen size: about 390,000 compounds; about 760 (0.19%) were called active. The shares of active, inactive and inconclusive entries below differ from those in the screen. Calls follow the shape of the dose curve; as a rule, active = well fitted inhibition curve with a large enough effect; inconclusive = small, poorly fitted or top-dose-only effect; inactive = flat fitted curve, though single readings scatter. Where the call is inconclusive, the potency comes from a doubtful curve fit.

Test: qHTS for Inhibitors of Vif-A3F Interactions: qHTS; also: nearly all actives have a fitted effect of over 65% in size; as to activity, negative = active: % of control where 0% means no effect
Settings: HeLa A3F-eYFP + Vif (tagged APOBEC3F with the HIV-1 protein that degrades it), YFP fluorescence increase; series mostly up to 46.1 µM; activity, negative = active: at the top concentration
Summary of the method: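 HeLa cells stably expressing Vif plus C-terminally eYFP-tagged A3F were seeded, incubated overnight at 37 deg C, dosed with compound, incubated overnight again at 37 deg C. Yellow fluorescence (Ex 488/Em 500-530) reported blocked Vif-mediated A3F-eYFP degradation.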
Potency is read from the fitted curve at half-maximal effect.

Row | Structure (SMILES) | Potency | activity, negative = active
1 | CC(NC(=O)/C(C#N)=C/c1ccc([N+](=O)[O-])o1)c1ccccc1 (centres undefined) | active: 11.2 µM | –
2 | Cn1c(Cn2c(=O)sc3ccccc32)nnc1SCC(=O)NCc1ccccc1 | inconclusive: 35.5 µM [inhibitor, single point] | –
3 | O=C(CCN1C(=O)c2ccccc2S1(=O)=O)Nc1cccc(F)c1 | inconclusive: 6.31 µM [inhibitor, single point] | –
4 | Cc1ccc(C)n1-c1ccc(N(C)C)cc1 | inconclusive: 10 µM [inhibitor, partial curve, poor fit] | –
5 | CN(C)CCCNS(=O)(=O)c1ccc(N2CCN(Cc3ccc4c(c3)OCO4)CC2)c([N+](=O)[O-])c1 | – | inactive: -1.51%
6 | CCN1CCCC1CNC(=O)c1ccc2c(c1)NC(=O)/C(=C\c1ccc(OC)c(OC)c1)S2 (centres undefined) | inconclusive: 35.5 µM [inhibitor, single point] | –
7 | O=C1C=C(NCCc2cc(Br)c(O)c(Br)c2)C(=O)c2ncccc21 | – | inactive: -24.4%
8 | O=C(N/N=C/c1ccc([N+](=O)[O-])o1)c1cccc(S(=O)(=O)N2CCOCC2)c1 | inconclusive: 35.5 µM [inhibitor, single point] | –
9 | CCN1CNC(=S)N(Cc2ccccc2)C1 | – | inactive: -9.75%
10 | CC(=O)NCCC(=O)N(C)CC1CCN(CCc2cccc(C(F)(F)F)c2)CC1 | – | inactive: -11.8%
11 | CCN(CC(=O)NC(=O)NCc1ccco1)Cc1nc2ccccc2c(=O)[nH]1 | inconclusive: 22.4 µM [inhibitor, single point] | –
12 | COc1cc(/C=C2\CC(C(C)(C)C)C/C(=C\c3cc(OC)c(OC)c(OC)c3)C2=O)cc(OC)c1OC (centres undefined) | inconclusive: 3.55 µM [inhibitor, single point] | –
13 | CC(C)CN(CC(C)C)S(=O)(=O)c1ccc(C(=O)Nc2sc3c(c2C(N)=O)CCN(C(C)C)C3)cc1 | inconclusive: 7.94 µM [inhibitor, partial curve, poor fit] | –
14 | CCN1CCOC(=O)C1CC(=O)Nc1cc(Cl)ccc1C (centres undefined) | – | inactive: 1.11%
15 | c1ccc(-c2nnc(-c3ccccn3)nc2NC2CCCCC2)cc1 | inconclusive: 25.1 µM [inhibitor, single point] | –
16 | Cc1nc(Sc2ccc(Br)cc2)c(C#N)c(C)c1[N+](=O)[O-] | – | inactive: -2.78%
17 | CC(=O)c1cccc(N2C(=O)C3C(C(=O)Nc4cc(C)on4)C4(C)C=CC3(O4)C2C(=O)NC(C)(C)C)c1 (centres undefined) | inconclusive: 4.47 µM [inhibitor, single point] | –
18 | COc1ccccc1N1Cc2ccc(OC)c(OC)c2C1=O | inconclusive: 1.26 µM [inhibitor, full curve, poor fit] | –
19 | CCN(C(=O)COC(=O)/C=C/c1cccc(Cl)c1)c1c(N)n(Cc2ccccc2)c(=O)[nH]c1=O | inconclusive: 35.5 µM [inhibitor, single point] | –
20 | COC(=O)c1ccc(NC(=O)CSc2nncn2-c2cccnc2)cc1 | inconclusive: 1.78 µM [inhibitor, partial curve, poor fit] | –
21 | CC1=NN(c2ccccc2)C(=O)/C1=C/C=C/c1ccccc1 | inconclusive: 3.16 µM [inhibitor, single point] | –
22 | CN1/C(=C\C(=O)C[n+]2ccc3ccccc3c2)C(C)(C)c2ccccc21 | inconclusive: 3.16 µM [inhibitor, single point] | –

Quoted at random: 3 records from the list.
Row | Structure (SMILES) | Potency | activity, negative = active
12 | COc1cc(/C=C2\CC(C(C)(C)C)C/C(=C\c3cc(OC)c(OC)c(OC)c3)C2=O)cc(OC)c1OC (centres undefined) | inconclusive: 3.55 µM [inhibitor, single point] | –
11 | CCN(CC(=O)NC(=O)NCc1ccco1)Cc1nc2ccccc2c(=O)[nH]1 | inconclusive: 22.4 µM [inhibitor, single point] | –
4 | Cc1ccc(C)n1-c1ccc(N(C)C)cc1 | inconclusive: 10 µM [inhibitor, partial curve, poor fit] | –

(listing goes on)

Row | Structure (SMILES) | Potency | activity, negative = active
23 | O=Cc1c(Cl)nc2ccccn2c1=O | inconclusive: 31.6 µM [inhibitor, single point] | –
24 | O=C(Cc1ccccc1Cl)Nc1nc2ccccc2[nH]1 | inconclusive: 25.1 µM [inhibitor, single point] | –
25 | CC1=CC(C)(C)NC(=S)N1c1cccc(C)c1 | inconclusive: 35.5 µM [inhibitor, single point] | –
26 | CC(C)c1cc(C(=O)NNC(=S)NCc2ccco2)c(O)c(C(C)C)c1 | – | inactive: -1.65%
27 | O=C(c1ccc2c(c1)OCO2)C1CCCN(Cc2cccn2-c2cccnc2)C1 (centres undefined) | inconclusive: 6.31 µM [inhibitor, single point] | –
28 | CCCCCCCCn1c2c(c(=N)c3ccccc31)CCC2 | – | inactive: 4.11%
29 | O=C(CNc1ccccc1)N/N=C/c1ccc2c(c1)OCCO2 | inconclusive: 2 µM [inhibitor, partial curve, poor fit] | –
30 | ClCc1nc2ccccc2n1Cc1ccccc1 | active: 5.62 µM | –
31 | NS(=O)(=O)c1ccc(CCNC(=O)c2ccc(Cl)c(S(=O)(=O)NCc3ccco3)c2)cc1 | inconclusive: 0.562 µM [inhibitor, full curve, poor fit] | –
32 | CC(C)C[C@@H](CNCC(=O)[C@H](Cc1c[nH]c2ccccc12)NC(=O)c1[nH]cnc1C(=O)N[C@@H](C)CN)NC(=O)c1nc[nH]c1C(=O)N[C@@H](C)C(=O)O | – | inactive: 9.01%
33 | COc1ccc2[nH]c(C)c(C(=O)CN3CCN(C(=O)c4ccco4)CC3)c2c1 | – | inactive: 3.59%
34 | CC(C)C(=O)NNC(=O)CSc1ncnc2c1cnn2-c1ccccc1Cl | inconclusive: 1.12 µM [inhibitor, partial curve, poor fit] | –
35 | Cc1ccc(S(=O)(=O)c2nc(-c3cccs3)oc2SC(C)C)cc1 | – | inactive: 4.17%
36 | COc1ccc2c(Sc3ccc(Cl)cc3)c(C(=O)N3CCC(C)CC3)[nH]c2c1 | inconclusive: 31.6 µM [inhibitor, single point] | –
37 | CCc1cc2cccc(C)c2nc1SCC(=O)c1ccc(NC(C)=O)cc1 | – | inactive: -22.8%
38 | O=C(COc1ccc2ccccc2c1)NC1CC(=O)N(c2ccccc2)C1 (centres undefined) | – | inactive: 4.27%
39 | CC(Cc1cccs1)NC(=S)Nc1ccc(Cl)cc1 (centres undefined) | inconclusive: 28.2 µM [inhibitor, single point] | –
40 | Cc1ccc2c(c1)S/C(=C\c1cccc[n+]1C)N2CCO | inconclusive: 35.5 µM [inhibitor, single point] | –
41 | CN(CC1CCCN(CCc2ccc(Cl)cc2)C1)C(=O)c1ccoc1 (centres undefined) | – | inactive: 1.46%
42 | Cc1ccc(SCC(=O)N(C)CC(=O)Nc2cccc(F)c2)c(C)c1 | – | inactive: 4.92%
43 | COc1cccc2cc(-c3nc(-c4cccs4)cs3)c(=O)oc12 | inconclusive: 17.8 µM [inhibitor, single point] | –
44 | O=C(COC(=O)Cn1cc(C(F)(F)F)ccc1=O)Nc1ccc(Br)cc1F | inconclusive: 8.91 µM [inhibitor, partial curve, poor fit] | –
